PubChem BioAssay AID2417 (National Center for Advancing Translational Sciences (NCATS), 2010)
Hit rate of the full screen: of about 140,000 compounds, about 4,300 (3.1%) were called active. The shares of active, inactive and inconclusive entries below differ from those in the screen.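 How the source made its calls: active means readout at or below -70, meaning at least 70% loss of cells showing the perinucleolar compartment, a nuclear body marking cancer cells; inconclusive means readout between -30 and a set limit; inactive means the rest.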

assay: High Content Assay for Compounds that inhibit the Assembly of the Perinucleolar Compartment; conditions: PC3M PTB-GFP, PNC prevalence imaging, 16 h; at 10 µM; hits give low values;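 further: plate controls were DMSO wells for no effect and camptothecin positive control wells for full effect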
Procedure, shortened: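 Compounds are pinned in duplicate onto adhered PC3M cells stably expressing GFP-tagged PTB and incubated 16 h at 37 C. Cells are then fixed, nuclei stained with Hoechst, and PNC-positive cells counted.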

| Compound | activity change (PNC), negative = inhibition |
| --- | --- |
| Cn1ncc(Br)c1C(=O)NCc1cccs1 | inconclusive: -49.5% |
| COC(=O)C(/C=N/OCc1ccc([N+](=O)[O-])cc1)NC(=O)c1cccc(Cl)c1 (stereo unspecified) | active: -98.4% |
| Cc1cc(N2CCC(C(=O)N3CCN(c4cccc(C)c4C)CC3)CC2)n2ncnc2n1 | inactive: 26.4% |
| COc1ccc2c(-c3cccnc3)cc(=O)[nH]c2c1 | inconclusive: -79.2% |
| Cc1cc(C)c(-c2c(O)c3cnn(-c4ccccc4)c3[nH]c2=O)c(C)c1 | inconclusive: -77% |
| COc1ccc(-c2nc3scc(-c4ccc(OC)c(OC)c4)c3c(=O)o2)cc1 | inconclusive: -47.5% |
| O=C(CN1CCCC1)N1c2ccccc2Sc2ccc(C(F)(F)F)cc21 | inactive: 16.7% |
| CC(/C=C1\SC(=S)N(NC(=O)c2cccc(O)c2)C1=O)=C\c1ccccc1 | inactive: -16.1% |
| CC(C)NC(=O)COC(=O)c1ccc(Oc2ccccc2)cc1 | inconclusive: -67.6% |
| CCOC(=O)C(/C=C(\C#N)C(=O)OCC)=C(/N)N1CCN(c2ccc(Cl)cc2)CC1 | inconclusive: -51.8% |
| COc1ccc(/C=N/NC(=O)COc2ccccc2-c2ccccc2)cc1 | active: -115% |
| Cc1ccc2cc(CN(Cc3nnnn3Cc3ccco3)CC3CCCO3)c(=O)[nH]c2c1C (stereo unspecified) | inconclusive: -51% |
| CCOc1ccccc1C(=O)Nc1ccccc1C(N)=O | inactive: -9.79% |
| Cc1ccc(C)c(NC(=S)NNC(=O)c2ccco2)c1 | inconclusive: -40.8% |
| Cc1cc(Nc2ccc(F)cc2F)n2nc(C)nc2n1 | inconclusive: -56.9% |
| COc1nc(NCc2cccnc2)nc(NC2CCCCC2)n1 | inconclusive: -41.7% |
| Cc1cc(C)nc(SCC(=O)OCN2C(=O)c3ccccc3C2=O)n1 | inconclusive: -50% |
| CCOc1ccccc1NC(=O)C1CCCN1C(=O)OCc1ccccc1 (stereo unspecified) | inconclusive: -47.7% |
| CCOCCOC(=O)C1=C(C)N(C)C(=O)NC1c1ccccc1Cl (stereo unspecified) | inactive: -18.2% |
| O=c1cc(CO)oc(C(Nc2ccccn2)c2ccc(F)cc2)c1O (stereo unspecified) | inconclusive: -74.9% |
| CCc1nc(SCC(=O)Nc2nc3c(s2)CCCC3)c2ccccc2n1 | inactive: -7.62% |
| N#Cc1cn(-c2ccccc2)nc1C(=O)c1ccccc1 | inactive: 41.2% |
| CC(=O)/C=C/n1c(=S)oc2ccccc21 | inconclusive: -39.7% |

| Compound | activity change (PNC), negative = inhibition |
| --- | --- |
| O=C(NC1CCCc2ccccc21)c1cccc(S(=O)(=O)N2CCN(c3ccccc3)CC2)c1 (stereo unspecified) | inconclusive: -41.8% |
| Nc1nonc1-c1noc(-c2ccccc2)n1 | active: -100% |
| CCCCN(C)S(=O)(=O)c1ccc(C(=O)N=c2sc3cc(NC(C)=O)ccc3n2C)cc1 | active: -94.4% |
| CCN(CC)S(=O)(=O)c1ccc(N2CCCC2)c(C(=O)Nc2ccc(OC)c(Cl)c2)c1 | inconclusive: -46.9% |
| CCN(CC)c1ccc(/C=N/NC(=O)c2ccco2)cc1 | active: -93.8% |
| CC(CN(C)Cc1ccccc1)OC(=O)c1ccc2c(c1)OCCO2 (stereo unspecified) | inactive: -2.41% |
| COc1ccc2cc(C(N)=O)/c(=N/NC(=O)c3ccco3)oc2c1 | inconclusive: -36.3% |
| Cc1ccc(Cn2nnnc2CN2CCC(O)(c3ccccc3F)CC2)cc1 | active: -100% |
| COc1cc(C(C#N)N2CCOCC2)ccc1O (stereo unspecified) | inactive: -5.08% |
| CC(=O)Oc1ccc2c(C)cc(=O)[nH]c2c1 | active: -114% |
| CCCCS(=O)(=O)/C=C\C1C2C=CC(C2)C1S(=O)(=O)CCCC (stereo unspecified) | inactive: 40.8% |
| O=C(NC1CCCc2ccccc21)c1ccccc1 (stereo unspecified) | inconclusive: -39% |
| CCOC(=O)c1cc(C)sc1NC(=S)Nc1ccccc1 | inactive: 14.1% |
| CCCc1nnc2c(N(C)S(=O)(=O)c3ccccc3)nc3ccccc3n12 | inconclusive: -31.9% |
| C=CCNC(=O)c1ccccc1NC(=O)Cc1ccccc1[N+](=O)[O-] | inactive: 28.8% |
| O=C1N=C(N2CCN(c3ccccc3)CC2)S/C1=C\c1cn[nH]c1-c1ccccc1 | inconclusive: -54.9% |
| O=C(CCN1CCc2ccccc21)c1ccc2c(c1)OCCO2 | inactive: -26.3% |
| CCc1nnc(NC(=O)CCN(c2cc(C)cc(C)c2)S(=O)(=O)c2ccc(Cl)cc2)s1 | active: -93.6% |
| COc1cccc(C(C(=O)NC(C)(C)C)N(C(=O)CCC(=O)Nc2cc(C)on2)C2CC2)c1OC (stereo unspecified) | inconclusive: -41.7% |
| COc1ccc(OC)c(NC(=O)CCC(=O)Nc2nnc(C(F)(F)F)s2)c1 | inactive: -18% |
| O=C(COc1ccccc1C(=O)c1cnn(-c2ccccc2)c1)Nc1ccccc1 | inactive: 3.56% |
| O=[N+]([O-])c1ccc(OCc2cccc(COc3ccc([N+](=O)[O-])cc3)n2)cc1 | inconclusive: -32% |
| O=C(COC(=O)C1CC2C=CC1C2)Nc1ccc2c(c1)OC(F)(F)O2 (stereo unspecified) | active: -100% |

A portion from further up, for reference:

| Compound | activity change (PNC), negative = inhibition |
| --- | --- |
| O=C1N=C(N2CCN(c3ccccc3)CC2)S/C1=C\c1cn[nH]c1-c1ccccc1 | inconclusive: -54.9% |
| O=C(CCN1CCc2ccccc21)c1ccc2c(c1)OCCO2 | inactive: -26.3% |
